{"source": "patent US20230147744A1", "about": "“METHODS TO ENRICH ENTEROENDOCRINE CELLS AND THEIR SUBTYPES IN THE CONTIGUOUS, INTESTINAL MONOLAYER SYSTEMS” (The University of North Carolina at Chapel Hill, priority 2020, published 2023)", "key": {"[1]": {"system": "EC cells in monolayers derived from human transverse colon stem cells", "test": "5HT secretion assay (ELISA of basal medium) on stem-cell-derived colonic monolayers after apical stimulation", "type": "cell-based", "conditions": "pungent food ingredient screen; apical stimulation 4 h; EC-enriched monolayers, donor 2"}, "[2]": {"system": "L-cells in differentiated colonic monolayers", "test": "GLP-1 secretion assay (ELISA of basal medium) from L-cell enriched monolayers", "type": "cell-based", "conditions": "apical exposure 4 hours; forskolin 10 μM, bombesin 10 μM"}}, "note": "For at least one compound, name, drawing or mass did not settle the structure. Ends that are not written are not given here.", "data": [{"molecule": "RPPGFSPFR [bradykinin]", "values": [{"measurement": "5HT induction", "setting": "[1]", "result": 1.4, "unit": "×"}]}, {"molecule": "CSCC[C@H](NC(=O)[C@H](CC(C)C)NC(=O)[C@H](Cc1cnc[nH]1)NC(=O)CNC(=O)[C@@H](NC(=O)[C@H](C)NC(=O)[C@H](Cc1c[nH]c2ccccc12)NC(=O)[C@H](CCC(N)=O)NC(=O)[C@H](CC(N)=O)NC(=O)CNC(=O)[C@H](CC(C)C)NC(=O)[C@H](CCCN=C(N)N)NC(=O)[C@H](CCC(N)=O)NC(=O)[C@@H]1CCC(=O)N1)C(C)C)C(N)=O", "note": "[bombesin]", "values": [{"measurement": "GLP-1 secretion relative to the control (DMSO)", "setting": "[2]", "result": "about six times higher than the control"}]}]}
